# In PubChem BioAssay AID662 (National Center for Advancing Translational Sciences (NCATS), 2007):
# Some of the results follow. Shown are side measurements of this screen, not its main read-out; they come without a call. Compounds called inactive in the main read-out are mostly missing here. Potencies come from curve fits of mixed quality, noted in brackets.
# Assay: Cell signaling CRE-BLA (Fsk stim)
# Conditions: CHO CRE-bla reporter (cAMP response element driving beta-lactamase), forskolin EC10, beta-lactamase ratio; measured here: 460 nm blue channel
# Procedure, shortened: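 Using CellSensor CRE-bla CHO cells in Opti-MEM with 0.5% dialyzed FBS, compounds were titrated with EC10 NKH 477 for 3 h at 37 °C. CCF4 ratio (460/530 nm) gave %Activity; AC50 derived.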
row,Structure (SMILES),AC50
1,CCOC(=O)c1oc2cccc(O)c2c1CN1CCOCC1,"25.1 µM [rising, single point]"
2,CCc1c(-c2ccccc2)nc2nc(C)c(C)nn12,"12.6 µM [rising, partial curve]"
3,O=C(Nc1nnc(COc2ccccc2)s1)c1ccco1,"20 µM [rising, single point]"
4,O=C(Nn1c(-c2ccccc2)nc2ccccc2c1=O)c1ccco1,"3.98 µM [falling, full curve]"
5,COc1ccccc1N1CCN(c2nc3ccccc3nc2C(C#N)C(=O)OC(C)C)CC1 (centres undefined),"2 µM [rising, partial curve]"
6,COc1ccc(Br)cc1C1CC(=O)N2CN(Cc3ccccc3)CSC2=C1C#N (centres undefined),"3.98 µM [rising, single point]"
7,O=C(NC1CCCC1)C1CCN(S(=O)(=O)c2cccc3cccnc23)CC1,"20 µM [falling, partial curve, poor fit]"
8,CCN(CC)C(=O)c1cc2c(=O)n3cccc(C)c3nc2n1C,"12.6 µM [rising, partial curve, poor fit]"
9,Cc1sc2ncnc(Sc3nnnn3-c3ccccc3)c2c1C,"20 µM [falling, partial curve]"
10,Cc1csc(NC(=O)c2cccc(S(=O)(=O)N3CCCCC3)c2)n1,"12.6 µM [rising, single point]"
11,CCCc1[nH]nc2c1C(c1cn[nH]c1-c1ccc(F)cc1)C(C#N)=C(N)O2 (centres undefined),"7.94 µM [falling, partial curve, poor fit]"
12,C1=Nc2c(NCc3ccccc3)ncnc2Oc2ccccc21,"20 µM [rising, single point]"
13,CC(C)CN(CC(C)C)c1nc(N)c(C#N)c(CC#N)c1C#N,"20 µM [rising, single point]"
14,Cc1ccccc1OCCn1nc(C(=O)O)c2ccccc2c1=O,"12.6 µM [rising, single point]"
15,C(=N\n1cnnc1)/c1cccc2ccccc12,"12.6 µM [rising, single point]"
16,Cc1cccc(N=c2oc3cc(O)ccc3cc2C(N)=O)c1,"10 µM [rising, partial curve]"
17,CCCc1nc(SCC(=O)N2CCCc3ccccc32)c2c(=O)n(C)c(=O)n(C)c2n1,"15.8 µM [falling, single point]"
18,Cc1ccc(OCc2nn3c(-c4n[nH]c5c4CCC5)nnc3s2)cc1,"25.1 µM [rising, single point]"
19,N#Cc1c2c(c(NCc3ccco3)n3c1nc1ccccc13)CCC2,"6.31 µM [rising, partial curve]"
20,COc1cc(-c2noc(CCCC(=O)NCc3ccco3)n2)cc(OC)c1OC,"20 µM [rising, single point]"
21,O=C1c2ccccc2C(=O)N1c1cccc(-c2nc3ccccc3o2)c1,"15.8 µM [rising, partial curve]"
22,CCOc1ccc(C2NC(=O)c3ccccc3O2)cc1 (centres undefined),"3.98 µM [rising, partial curve]"
23,O=C(Cn1nnc(-c2ccccc2)n1)OC1CCOC1=O (centres undefined),"5.01 µM [falling, single point]"

row,Structure (SMILES),AC50
1,CCn1nnc(NC(=O)c2cccnc2)n1,"0.0398 µM [falling, full curve]"
2,CC(=O)c1c(C)cc(C)c(CSc2nnc(-c3ccco3)o2)c1C,"7.94 µM [rising, partial curve]"
3,CCc1nnc(NC(=O)c2ccc(OC)cc2OC)s1,"12.6 µM [rising, partial curve]"
4,CCOC(=O)Cc1nnc(NC(=O)C(CC)Sc2nnc3c4ccccc4n(C)c3n2)s1 (centres undefined),"5.01 µM [rising, partial curve]"
5,CCNc1ncc2nc(-c3cccs3)c(=O)n(-c3ccc(OC)cc3)c2n1,"2.51 µM [rising, full curve]"
6,Cc1[nH]c2ccccc2c1C(=O)CN1CCCC1,"20 µM [falling, single point]"
7,CCOCCCNC(=O)C(c1ccc(Cl)cc1)N1CCC2(CC1)OCCO2 (centres undefined),"20 µM [falling, partial curve]"
8,Cc1nc2c(ccc3nc(NC(=O)c4ccc5c(c4)OCCO5)sc32)s1,"25.1 µM [falling, single point]"
9,O=C(NCc1ccc2c(c1)OCO2)c1ccc(-c2ccc(Cl)cc2)o1,"2.51 µM [rising, partial curve, poor fit]"
10,COCCSc1ccccc1C(=O)Nc1nnc(COC)s1,"0.0501 µM [falling, full curve]"
11,O=C(OCCN1C(=O)c2ccccc2C1=O)C1CCN(S(=O)(=O)c2cccs2)CC1,"15.8 µM [rising, single point]"
12,Cc1noc(C)c1-c1nc(NCc2cccs2)c2ccccc2n1,"10 µM [rising, partial curve]"
13,CC(C)C[C@@H](CC(=O)N[C@@H](CCC(=O)O)CC(=O)O)NC(=O)[C@@H]1CNCC[C@H]1NC(=O)C[C@H](CCCN)NC(=O)C[C@H](Cc1ccccc1)NC(=O)[C@@H]1CCCC[C@H]1N,"10 µM [falling, full curve, poor fit]"
14,CC1CCc2sc3nc(N4CCN(CCO)CC4)n4ncnc4c3c2C1 (centres undefined),"12.6 µM [rising, partial curve]"
15,CC(=O)N(C)c1ccc(NC(=O)c2cnn(C)c2)cc1,"0.1 µM [falling, full curve, poor fit]"
16,CCc1nc(SCC(=O)Nc2cc(C)on2)c2c(=O)n(C)c(=O)n(C)c2n1,"5.01 µM [rising, partial curve]"
17,COCCN1Cc2cccc(C(=O)Nc3ccc(C)c(C)c3)c2C1=O,"0.251 µM [rising, full curve]"
18,COC(=O)c1sccc1NC(=O)c1ccoc1C,"10 µM [rising, partial curve]"
19,CC1(C)CC(=O)C=C(NCCCN2CCCC2=O)C1,"3.98 µM [falling, single point]"
20,CCCC(=O)N(c1ccc2oc(=O)sc2c1)S(=O)(=O)c1ccccc1,"5.01 µM [falling, partial curve, poor fit]"
21,CC(C)n1c(NCc2cc(Cl)ccc2O)nc2ccccc21,"25.1 µM [falling, single point]"
22,Cc1cnc(CNc2ccnc(-c3c(C)noc3C)n2)cn1,"10 µM [rising, partial curve]"
23,CCOc1ccccc1N1CCN(S(=O)(=O)c2ccc3c4c(cccc24)C(=O)N3)CC1,"12.6 µM [rising, single point]"

# Copied from the list.
# COCCSc1ccccc1C(=O)Nc1nnc(COC)s1 – AC50: 0.0501 µM [falling, full curve]
# CC(=O)N(C)c1ccc(NC(=O)c2cnn(C)c2)cc1 – AC50: 0.1 µM [falling, full curve, poor fit]

# (continued)

row,Structure (SMILES),AC50
1,CC(CCc1ccco1)NC(=O)c1cc2c(-c3ccccc3F)nn(C)c2s1 (centres undefined),"2 µM [rising, partial curve]"
2,CN(C)c1ccc(-c2ccc3ncnc(NC4CC4)c3c2)cc1,"6.31 µM [rising, partial curve]"
3,COc1ccc(C(=O)OCCN=C2NS(=O)(=O)c3ccccc32)cc1OC,"12.6 µM [rising, single point]"
4,O=C(COc1cccc(OC(F)F)c1)Nc1ccc(SC(F)F)cc1,"5.01 µM [falling, partial curve]"
5,CCOC(=O)c1sc(NC(=O)CSc2ncn[nH]2)c(C#N)c1C,"12.6 µM [falling, single point]"
6,O=C1CCCC2=C1C1(CCCCC1)N=C(Nc1nc3ccccc3o1)N2,"2 µM [rising, full curve]"
7,CCNc1ncc2nc(-c3ccc(F)cc3)c(=O)n(C[C@H]3CCCO3)c2n1,"2 µM [rising, full curve]"
8,CCCS(=O)(=O)N1CCC(C(=O)N2CCN(C(=O)OCC)CC2)CC1,"25.1 µM [rising, single point]"
9,COc1cc(NC(=O)C2CC(c3cccc(OC)c3OC)=NO2)cc(OC)c1OC (centres undefined),"10 µM [rising, partial curve]"
10,CCOC(=O)Cc1c(C)nc2c(C#N)c(C)nn2c1C,"25.1 µM [rising, single point]"
11,O=C(O)[C@@H](O)[C@@H](O)[C@H](O)[C@H](O)CO,"1 µM [falling, single point]"
12,COc1nc(-c2ccccc2)ccc1-c1noc(COc2ccccc2)n1,"0.00316 µM [falling, full curve, poor fit]"
13,COc1ccc(S(=O)(=O)NCCSCc2ccco2)cc1,"10 µM [falling, partial curve]"
14,Cc1cc(C(C)(C)C)cc(C)c1CC1=NCCN1,"5.01 µM [falling, partial curve, poor fit]"
15,Cc1cc(=O)cc(C)n1-c1ccc2c(c1)nc(C)n2-c1ccccc1,"3.98 µM [falling, single point]"
16,Cc1cc(CC(C)C)n(-c2nc3ccccc3c(=O)n2OCC(=O)N(C)C)n1,"10 µM [rising, single point]"
17,Cc1cc(NCCCN2CCOCC2)n2nc(C)c(-c3ccc(F)cc3)c2n1,"0.2 µM [falling, full curve]"
18,COC(=O)c1cc(COc2ccc3ccc(=O)oc3c2)c(C)o1,"0.00794 µM [falling, full curve, poor fit]"
19,CCn1c(SCC(=O)OC)nc2sc3c(c2c1=O)CCC3,"12.6 µM [rising, partial curve]"
20,O=C(Nc1ccccc1)Nc1ccc(S(=O)(=O)N2CCCCC2)cc1,"12.6 µM [falling, single point]"
21,CC1Cc2ccccc2N1Cc1nc2scc(-c3cccs3)c2c(=O)[nH]1 (centres undefined),"7.94 µM [falling, partial curve]"
22,O=C(Nc1ccccc1-c1nc2ccccc2s1)c1ccco1,"2.51 µM [rising, full curve]"
23,CCOC(=O)c1sc(NC(=O)C2CC2)cc1C,"10 µM [rising, partial curve]"
